Values from PubChem BioAssay AID1159584 (Peter MacCallum Cancer Centre, 2016)

Screen: 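Genes whose loss is lethal only together with E-cadherin loss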 (primary screen)
Cell system: human MCF10A breast epithelial cells, parental and CDH1-null
Reagents: siRNA against human genes
Read-out: 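ATP luminescence (CellTiter-Glo) viability per line relative to mean mock wells over all plates, and the ratio of CDH1-null to parental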
Direction: CDH1-null / parental viability ratio: higher = CDH1-null cells survive relatively better than parental; CDH1-null viability vs mock: higher = more viable CDH1-null cells
The whole screen tested about 18,000 reagents; this is a part drawn at random. Not all columns of the deposit are shown. Not stated in the record: the amount of reagent, the time to read-out.

no.	target	CDH1-null / parental viability ratio	CDH1-null viability vs mock (fraction of mock)
1	SLC25A48	0.84	0.74
2	DUSP9	1.27	0.99
3	H2AC1	1.01	0.96
4	KRTAP13-3	1.22	0.94
5	SOFU1	0.92	0.76
6	DOP1A	1.12	0.72
7	TCP10L3	0.88	0.5
8	VAT1L	0.97	0.58
9	PROSER2	1.23	0.96
10	HMGN1	0.77	0.4
11	AS3MT	0.97	0.62
12	NAT9	1	0.76
13	SDCCAG8	1.14	1.07
14	BATF3	0.98	0.9
15	ERI3	1.21	1.03
16	ASPH	0.9	0.54
17	RPL31	1.07	0.32
18	KMT2B	0.97	0.34
19	DEFB119	0.95	0.82
20	ZMPSTE24	1.13	0.95
21	EPHB4	0.79	0.77
22	SH3TC2	0.62	0.31
23	WFDC9	0.56	0.36
24	VNN1	0.68	0.6
25	MXD1	0.94	0.3
26	AMHR2	0.89	0.73
27	SCFD1	0.94	0.5
28	LMNB2	1	1.1
29	PXK	0.95	0.72
30	EVX1	1	0.5
31	KRTAP12-3	1.04	1.06
32	ZNF718	1.08	0.94
33	DORIP1	0.92	0.46
34	SPSB2	1.21	0.94
35	FANCC	0.77	0.48
36	MLH3	0.88	0.74
37	SRSF3	1	0.26
38	TOE1	1.09	0.74
39	STK16	0.89	0.76
40	SYNGR1	1.07	0.32
41	FLOT2	0.98	0.65
42	UBB	0.68	0.15
43	CALHM2	0.83	0.6
44	SPOCK1	1.39	1.11
45	PRAM1	0.9	0.57
46	SPTB	1.08	0.65
47	EMILIN2	0.88	0.66
48	PREB	1.04	0.94
49	ENKD1	0.83	0.97
50	BANF1	1.21	0.68
51	AGMO	1.19	0.86
52	NPTX2	1.05	0.8
53	ABL1	0.92	0.8
54	ZSCAN29	1.11	0.73
55	PAICS	0.99	0.86
56	TCEAL2	0.76	0.6

Sorted by “CDH1-null / parental viability ratio” (lowest first): 10 of the entries above.
target	CDH1-null / parental viability ratio	CDH1-null viability vs mock (fraction of mock)
HMGN1	0.77	0.4
TCP10L3	0.88	0.5
SOFU1	0.92	0.76
VAT1L	0.97	0.58
AS3MT	0.97	0.62
BATF3	0.98	0.9
NAT9	1	0.76
DOP1A	1.12	0.72
SDCCAG8	1.14	1.07
PROSER2	1.23	0.96

Further results follow:
no.	target	CDH1-null / parental viability ratio	CDH1-null viability vs mock (fraction of mock)
57	TSGA10	1.14	0.74
58	CT47A3	1.36	0.87
59	KRT26	0.85	0.58
60	ENDOG	0.54	0.36
61	RMI1	0.97	0.56
62	OR52M1	1.17	0.56
63	TRAF5	0.83	0.68
64	MSMO1	1.11	1.04
65	WDR83	1.27	0.38
66	ARHGAP9	0.89	0.57
67	IL2RA	1.16	0.89
68	KSR2	1.01	0.76
69	SPMIP9	1.22	0.66
70	CSTF3	1.09	0.6
71	DENND2B	1.19	0.89
72	MINDY3	1.13	0.81
73	KAZALD1	0.77	0.6
74	DEFB123	0.8	0.59
75	SLC35B3	1.09	0.7
76	TUBB4A	0.79	0.48
77	TMEM231	1	0.84
78	TMEM62	1.3	1.03
79	POP4	0.94	0.92
80	PWWP3A	0.96	0.82
81	SCGB1D2	1.19	1
82	AKAP5	0.82	0.9
83	COLEC10	0.84	0.38
84	PLA2G2A	0.91	0.82
85	GNG12	0.92	0.72
86	GPRASP1	0.85	0.82
87	VKORC1L1	0.75	0.36
